Results are given in words; binding and its absence hold for the method and conditions named. Binding seen in cells or lysates may run through a third protein. Some binding calls cover weakened binding; strength is not graded here. Where a sequence is shown, tags or fusion partners need not be part of it.
Target: T1, Flag-SMYD1 (not stated (human or mouse cDNA cloned)) (UniProt Q8NB12)
T1 sequence: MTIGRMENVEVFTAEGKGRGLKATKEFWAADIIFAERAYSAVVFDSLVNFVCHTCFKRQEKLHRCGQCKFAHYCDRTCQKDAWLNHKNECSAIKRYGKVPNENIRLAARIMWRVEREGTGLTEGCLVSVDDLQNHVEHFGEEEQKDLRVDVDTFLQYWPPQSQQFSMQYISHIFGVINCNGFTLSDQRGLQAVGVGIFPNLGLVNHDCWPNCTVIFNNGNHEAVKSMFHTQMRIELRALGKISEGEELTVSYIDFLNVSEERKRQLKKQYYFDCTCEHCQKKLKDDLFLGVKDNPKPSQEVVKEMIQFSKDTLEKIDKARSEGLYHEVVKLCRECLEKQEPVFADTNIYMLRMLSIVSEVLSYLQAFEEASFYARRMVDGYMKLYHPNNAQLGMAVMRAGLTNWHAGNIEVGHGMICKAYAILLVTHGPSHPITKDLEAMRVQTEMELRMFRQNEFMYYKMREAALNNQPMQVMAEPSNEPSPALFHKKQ
Assay: co-IP; 293T cells transfected with Flag-SMYD1 and HA-SRF constructs (whole or deletion mutants); lysates immunoprecipitated with anti-Flag (Fig 4A also anti-HA) antibody; western blot with anti-HA or anti-Flag

B1: HA-SRF (protein, UniProt P11831 1-508)
chain: MLPTQAGAAAALGRGSALGGSLNRTPTGRPGGGGGTRGANGGRVPGNGAGLGPGRLEREAAAAAATTPAPTAGALYSGSEGDSESGEEEELGAERRGLKRSLSEMEIGMVVGGPEASAAATGGYGPVSGAVSGAKPGKKTRGRVKIKMEFIDNKLRRYTTFSKRKTGIMKKAYELSTLTGTQVLLLVASETGHVYTFATRKLQPMITSETGKALIQTCLNSPDSPPRSDPTTDQRMSATGFEETDLTYQVSESDSSGETKDTLKPAFTVTNLPGTTSTIQTAPSTSTTMQVSSGPSFPITNYLAPVSASVSPSAVSSANGTVLKSTGSGPVSSGGLMQLPTSFTLMPGGAVAQQVPVQAIQVHQAPQQASPSRDSSTDLTQTSSSGTVTLPATIMTSSVPTTVGGHMMYPSPHAVMYAPTSGLGDGSLTVLNAFSQAPSTMQVSHSQVQEPGGVPQVFLTASSGTVQIPVSAVQLHQMAVIGQQAGSSSNLTELQVVNLDTAHSTKSE
- binding: binds

From publication PMC4723226
